At least one result comes from cells or an extract, where the contact may be indirect. Negatives hold for the conditions tested. Protein sequences can lack the tags named with them. For at least one entry, the source does not settle the construct or the ends of the probe.
Biological target: T1, PTK7 (protein tyrosine kinase 7) (UniProt Q13308)
T1 sequence (looked up, limits assumed): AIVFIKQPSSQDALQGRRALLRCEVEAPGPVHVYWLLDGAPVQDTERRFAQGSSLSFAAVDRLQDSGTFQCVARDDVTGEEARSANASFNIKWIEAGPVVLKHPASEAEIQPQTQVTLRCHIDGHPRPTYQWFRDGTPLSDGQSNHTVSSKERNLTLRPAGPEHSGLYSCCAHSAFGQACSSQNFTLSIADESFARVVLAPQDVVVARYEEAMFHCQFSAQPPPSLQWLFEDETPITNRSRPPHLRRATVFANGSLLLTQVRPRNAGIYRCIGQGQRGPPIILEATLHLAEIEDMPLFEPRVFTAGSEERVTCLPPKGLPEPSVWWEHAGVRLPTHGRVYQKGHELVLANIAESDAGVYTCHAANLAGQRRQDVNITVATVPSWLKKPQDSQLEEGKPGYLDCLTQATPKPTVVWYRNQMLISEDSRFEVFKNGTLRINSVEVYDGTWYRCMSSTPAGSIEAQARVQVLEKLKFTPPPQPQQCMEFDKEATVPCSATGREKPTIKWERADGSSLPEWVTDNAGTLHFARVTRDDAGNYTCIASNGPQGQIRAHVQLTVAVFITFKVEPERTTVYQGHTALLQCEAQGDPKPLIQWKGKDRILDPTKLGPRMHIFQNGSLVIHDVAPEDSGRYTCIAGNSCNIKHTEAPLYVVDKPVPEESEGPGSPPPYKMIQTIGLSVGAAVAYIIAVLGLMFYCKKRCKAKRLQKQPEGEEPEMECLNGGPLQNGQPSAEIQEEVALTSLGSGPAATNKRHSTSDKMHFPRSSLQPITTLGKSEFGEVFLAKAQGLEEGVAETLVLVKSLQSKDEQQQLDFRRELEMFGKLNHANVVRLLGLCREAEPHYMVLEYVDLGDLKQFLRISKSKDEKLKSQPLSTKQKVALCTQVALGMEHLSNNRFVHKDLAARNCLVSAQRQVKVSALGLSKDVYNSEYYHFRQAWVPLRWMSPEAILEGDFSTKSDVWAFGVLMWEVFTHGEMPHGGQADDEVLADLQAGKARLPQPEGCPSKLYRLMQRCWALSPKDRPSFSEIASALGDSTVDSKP
Assay: flow cytometry
Settings: 5'-amine converted to N,N-diethyl-N'-acyl phenylene diamine, 37 C, 30-60 min, culture media, protein on the cell surface, protein details: endogenous on Jurkat T leukemia cells, label: Alexa Fluor 488 on capsid interior, single-stranded DNA

Sequence	binding result (coupled to MS2 capsid exterior, capsid-displayed control strand on Jurkat cells, no increase in mean fluorescence)	binding result (coupled to MS2-paF19-N87C capsid exterior (20-40 copies per capsid), capsid-displayed aptamer (11 nM capsids) on Jurkat cells, target assigned as PTK7 from prior work, internalized, co-localizes with LDL)
CCCTAGAGTGAGTCGTATGACCCTAGAGTGAGTCGTATGAA [strand C (41-nt randomized control)]	no binding	
ATCTAACTGCTGCGCCGCCGGGAAAATACTGTACGGTTAGA [strand B (sgc8c aptamer)]		binds
